Measurements as given in PubChem BioAssay AID2685 (National Center for Advancing Translational Sciences (NCATS), 2010).
The list shows a part of the results. Shown are side measurements of this screen, not its main read-out; they come without a call. The list favours compounds with an active or inconclusive main result. The note in brackets gives the kind of curve behind each potency; many fits are weak.

Assay: qHTS Assay for Lipid Storage Modulators in Drosophila S3 Cells;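 on cell number change: cells counted by Cell Tracker Red CMTPX staining in the red channel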
Conditions: BODIPY lipid droplet fluorescence, 18-24 h; for cell number change: measured here: cell count max response, cells fed with added oleic acid
Procedure, shortened: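 Drosophila S3 cells loaded with oleic acid (400 uM, as added) and compounds at several concentrations; lipid droplets imaged by 488-nm laser-scanning cytometry, 500–530 nm intensity and object ratio to cell channel. Percent activity normalized to 20 uM Triacsin C.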

[1] = measured here: lipid fluorescence (Fed channel) AC50, cells fed with added oleic acid
[2] = measured here: cell number channel AC50, cells fed with added oleic acid

Q: What does the source list for `COc1ccc(-c2cc(=O)n(-c3ccc([N+](=O)[O-])cc3)[nH]2)cc1`?
A: cell number change: 17.1%; AC50 [1]: 5.8 µM [falling, full curve]

Q: With `O=C(COc1ccc(Cl)cc1)N1CCN(c2cccc(C(F)(F)F)c2)CC1` as the compound, how does the cell number change read?
A: -4.39%

Q: What about the AC50 [1] of the same compound?
A: 11.6 µM [falling, partial curve]

Q: Which results are given for `CCc1ccccc1NC(=O)Nn1cnnc1`?
A: cell number change: 26.9%; AC50 [1]: 18.4 µM [rising, partial curve, poor fit]

Q: Which cell number change does the source give for `CC(=O)c1ccc(NS(=O)(=O)c2ccc3c(c2)N(C(C)=O)CCO3)cc1` here?
A: 18.5%

Q: What does the source list for `O=C1c2ccccc2NC(c2ccccc2)N1Cc1ccco1` (stereo not given)?
A: cell number change: -10.6%; AC50 [1]: 0.13 µM [falling, full curve, poor fit]

Q: Which cell number change does the source give for `CCOC(=O)C1=C(C)NC2=C(C(=O)CC(C)(C)C2)C1c1ccsc1` (stereo not given) here?
A: 50.8%

Q: What about the AC50 [2] of the same compound?
A: 4.61 µM [rising, partial curve]

Q: Which results are given for `CCN(C1CCCCC1)S(=O)(=O)c1ccc(-n2cnnn2)c(C)c1`?
A: cell number change: 37.8%; AC50 [2]: 11.6 µM [rising, partial curve, poor fit]

Q: With `Cc1cnc(NC(=O)Cc2cccs2)s1` as the compound, how does the cell number change read?
A: -12.5%

Q: And the AC50 [1]?
A: 23.1 µM [falling, single point]

Q: For `O=C(NCc1ccccc1)C(c1ccccc1)N(C(=O)c1csnn1)C1CCCC1` (stereo not given), which cell number change is on record?
A: 7.69%

Q: With `COC(=O)COc1ccc(-n2cnnn2)cc1` as the compound, how does the cell number change read?
A: -23.7%

Q: And the AC50 [1]?
A: 0.651 µM [falling, full curve]

Q: What does the source list for `COc1ccc2oc(=O)cc(-c3cc4cccc(OC)c4o3)c2c1`?
A: cell number change: 10.1%; AC50 [1]: 0.731 µM [rising, full curve, poor fit]

Q: For `Cc1ccccc1NN1C(=O)C=CC1=O`, which cell number change is on record?
A: -83.7%

Q: And the AC50 [2]?
A: 2.06 µM [falling, partial curve, poor fit]

Q: And the AC50 [1]?
A: 18.4 µM [falling, partial curve]

Q: Which cell number change does the source give for `O=C(Nc1nc(-c2ccccn2)cs1)C1CCCC1` here?
A: -67%

Q: And the AC50 [2]?
A: 29.1 µM [falling, single point]

Q: And the AC50 [1]?
A: 29.1 µM [falling, single point]

Q: With `C=CCNC(=O)c1sc(SC)cc1-c1ccc(Cl)cc1` as the compound, how does the AC50 [2] read?
A: 0.259 µM [rising, full curve, poor fit]

Q: For `CCN(CC)C(=O)CSc1nnc(-c2cnccn2)n1-c1ccc(C)cc1`, which AC50 [2] is on record?
A: 0.184 µM [falling, full curve, poor fit]

Q: With `CCCc1nc2oc(C(=O)c3ccccc3)c(N)c2c2c1COC(C)(C)C2` as the compound, how does the AC50 [2] read?
A: 0.461 µM [rising, full curve]

Q: What about the AC50 [1] of the same compound?
A: 0.517 µM [rising, full curve]

Q: With `Cc1ccc(C23CC4CC(CC(NC(=O)NC(C)(C)CO)(C4)C2)C3)cc1` as the compound, how does the AC50 [2] read?
A: 6.51 µM [falling, partial curve, poor fit]

Q: Which results are given for `COc1ccc(/C=N/c2nc3ccccc3n2CCN2CCCCC2)cc1OC`?
A: cell number change: -47.3%; AC50 [2]: 25.9 µM [falling, single point]; AC50 [1]: 29.1 µM [falling, single point]

Q: Which cell number change does the source give for `CC(C)C[C@H]1CN=C(Nc2ccccc2)N1CCCC1CCCC1` here?
A: 20.4%

Q: With `COC(=O)COc1cc2ccccc2cc1C(=O)Nc1ccccc1` as the compound, how does the cell number change read?
A: 98.1%

Q: And the AC50 [2]?
A: 29.1 µM [rising, partial curve, poor fit]

Q: What about the AC50 [1] of the same compound?
A: 29.1 µM [rising, partial curve]

Q: Which cell number change does the source give for `CC(C)c1ccc(-n2ccnc2SCC(=O)O)cc1` here?
A: 48.6%

Q: With `CSc1nnc(-c2sc3cc(C(F)(F)F)cnc3c2-c2ccccn2)n1C` as the compound, how does the AC50 [2] read?
A: 6.51 µM [rising, partial curve, poor fit]

Q: Which AC50 [2] does the source give for `Cc1ccc(S(=O)(=O)c2nc(S(C)(=O)=O)sc2N2CCCCCC2)cc1` here?
A: 1.46 µM [rising, full curve, poor fit]

Q: What does the source list for `CC(NC(=O)CSc1ncn[nH]1)c1ccc(Cl)cc1Cl` (stereo not given)?
A: cell number change: 5.65%; AC50 [1]: 6.51 µM [rising, single point]

Q: For `CCN(Cc1nc(-c2ccc(C)cc2)no1)C(=O)c1ccco1`, which AC50 [1] is on record?
A: 29.1 µM [rising, partial curve, poor fit]

Q: For `COc1ccc(C(=O)NC2CCCN(Cc3ccc(Cl)cc3)C2)c(OC)c1` (stereo not given), which cell number change is on record?
A: 17.9%

Q: For `O=C(CSc1ncnc2ccccc12)c1ccc2c(c1)OCCO2`, which cell number change is on record?
A: -3.91%

Q: Which cell number change does the source give for `Cc1ccccc1Cn1cc(NC(=O)c2noc(C(C)C)c2[N+](=O)[O-])cn1` here?
A: -12.7%

Q: For `Cc1cccc(N2CCN(S(=O)(=O)c3ccc4[nH]c(=O)ccc4c3)CC2)c1C`, which cell number change is on record?
A: -28%

Q: What about the AC50 [1] of the same compound?
A: 18.4 µM [falling, single point]

Q: For `Cc1ccc(-c2noc(C3CCCN(C(=O)c4ccccc4Br)C3)n2)o1` (stereo not given), which cell number change is on record?
A: -7.89%

Q: For `CNC[C@H](O)c1ccc(O)c(O)c1`, which cell number change is on record?
A: 8.54%

Q: And the AC50 [1]?
A: 0.00461 µM [rising, full curve, poor fit]

Q: Which results are given for `OC1O[C@H](c2ccc3c(c2)OCO3)[C@H]2CO[C@H](c3ccc4c(c3)OCO4)[C@@H]12` (stereo not given in full)?
A: cell number change: 26%; AC50 [1]: 0.517 µM [rising, full curve, poor fit]

Q: Which cell number change does the source give for `C=CCN1CCN(C(=O)CCCc2ccccc2)CC1` here?
A: 12.2%

Q: And the AC50 [1]?
A: 2.31 µM [rising, partial curve, poor fit]

Q: Which cell number change does the source give for `CNC(=O)c1cc2c(=O)n3cc(C)ccc3nc2n(C(C)C)c1=N` here?
A: -1.04%

Q: With `CCOc1ccc(CCNC(=O)COC(=O)c2cc(OC)c(OC)c(OC)c2)cc1OCC` as the compound, how does the cell number change read?
A: -41%

Q: And the AC50 [2]?
A: 29.1 µM [falling, single point]

Q: What about the AC50 [1] of the same compound?
A: 29.1 µM [falling, single point]

Q: With `O=C(Cn1cc(C(F)(F)F)ccc1=O)Nc1cc(S(=O)(=O)N2CCOCC2)ccc1Cl` as the compound, how does the cell number change read?
A: 16.9%

Q: For `Cc1sc2nc(SCC(=O)O)[nH]c(=O)c2c1C`, which cell number change is on record?
A: -11.5%

Q: What about the AC50 [1] of the same compound?
A: 4.61 µM [falling, full curve, poor fit]

Q: Which cell number change does the source give for `COc1ccc([N+](=O)[O-])cc1N(CC(O)Cn1nnc2ccccc21)S(=O)(=O)c1ccc(C)cc1` (stereo not given) here?
A: -17.4%

Q: What about the AC50 [2] of the same compound?
A: 0.103 µM [falling, full curve, poor fit]

Q: With `O=C(O)CC/C(=N/NC(=O)c1ccc(-c2ccccc2)cc1)c1ccccc1` as the compound, how does the cell number change read?
A: 12.9%

Q: And the AC50 [2]?
A: 6.51 µM [rising, partial curve]

Q: With `COC(=O)c1ccccc1SC1CC(=O)N(c2cccc(C)c2)C1=O` (stereo not given) as the compound, how does the cell number change read?
A: -11.5%

Q: And the AC50 [1]?
A: 0.82 µM [falling, full curve]

Q: With `COc1ccc(NC(=S)Nc2ccc3nsnc3c2)cc1` as the compound, how does the cell number change read?
A: -23.4%

Q: What about the AC50 [1] of the same compound?
A: 0.411 µM [rising, full curve, poor fit]

Q: What does the source list for `COc1ccc(OC)c(N(CC(=O)NCc2ccncc2)S(C)(=O)=O)c1`?
A: cell number change: -1.08%; AC50 [1]: 6.51 µM [falling, single point]

Q: Which AC50 [1] does the source give for `COc1ccc(OC)c2c1cc(C(=O)N[C@@H](Cc1ccccc1)C(=O)O)n2C` here?
A: 18.4 µM [rising, single point]

Q: With `Cc1c(NC(=O)Nc2cccc(Cl)c2)c(=O)n(-c2ccccc2)n1C` as the compound, how does the cell number change read?
A: -45.5%

Q: What about the AC50 [2] of the same compound?
A: 14.6 µM [falling, partial curve, poor fit]

Q: And the AC50 [1]?
A: 2.06 µM [falling, single point]

Q: For `Cc1cc(C)c(-c2cc(C)nc3ncnn23)c(C)c1`, which AC50 [2] is on record?
A: 0.291 µM [falling, full curve, poor fit]

Q: For `CNC(=O)COC(=O)Cc1ccc(Cl)cc1`, which cell number change is on record?
A: -10.3%

Q: And the AC50 [1]?
A: 4.11 µM [rising, single point]

Q: Which cell number change does the source give for `COCCNC(=O)c1c(N)n(-c2cccc(C)c2)c2nc3ccccc3nc12` here?
A: -74.3%

Q: What about the AC50 [2] of the same compound?
A: 25.9 µM [falling, partial curve]

Q: And the AC50 [1]?
A: 29.1 µM [falling, single point]

Q: Which cell number change does the source give for `O=C(NCCCn1ccnc1)c1nn2c(C(F)(F)F)cc(-c3ccc(Br)cc3)nc2c1Cl` here?
A: -47.7%

Q: And the AC50 [2]?
A: 29.1 µM [falling, single point]

Q: And the AC50 [1]?
A: 1.84 µM [falling, partial curve]

Q: For `CCC(CC)c1nnc(NC(=O)c2ccc(N3CCCCC3)c([N+](=O)[O-])c2)s1`, which cell number change is on record?
A: -65.2%

Q: What about the AC50 [2] of the same compound?
A: 29.1 µM [falling, single point]

Q: What about the AC50 [1] of the same compound?
A: 29.1 µM [falling, single point]

Q: Which cell number change does the source give for `O=C(CSc1nc(O)c(C(c2ccccc2)c2ccccc2)c(=O)[nH]1)N1CCOCC1` here?
A: -12.5%

Q: With `Cc1cccc(NC(=O)CN2CCN(C(=O)c3c(C)nn(Cc4ccccc4)c3C)CC2)c1C` as the compound, how does the cell number change read?
A: -20.6%

Q: With `Cc1nc2ccccn2c1C(=O)C(=O)Nc1cc(F)ccc1F` as the compound, how does the AC50 [2] read?
A: 4.61 µM [falling, partial curve]

Q: For `COc1ccc(C2NC(=O)c3n[nH]c(C)c32)c(OC)c1` (stereo not given), which cell number change is on record?
A: -3.35%

Q: With `Cn1c(NC(=O)c2cccs2)c(-c2cccs2)c(=O)c2ccccc21` as the compound, how does the cell number change read?
A: 3.63%

Q: And the AC50 [1]?
A: 1.16 µM [rising, full curve, poor fit]

Q: Which results are given for `c1ccc2c(c1)OCC(c1nn3c(Cn4nnc5ccccc54)nnc3s1)O2` (stereo not given)?
A: AC50 [2]: 2.06 µM [rising, partial curve]; AC50 [1]: 0.731 µM [rising, single point]

Q: For `CC(=O)c1ccc(N2CCN(C(=O)CCCn3c(=O)[nH]c4ccc(Br)cc4c3=O)CC2)cc1`, which cell number change is on record?
A: -12.3%

Q: What about the AC50 [2] of the same compound?
A: 0.13 µM [rising, full curve]

Q: Which cell number change does the source give for `COc1ccccc1N1CCN(C(=O)C2CC=CCC2C(=O)O)CC1` (stereo not given) here?
A: 5.75%

Q: What about the AC50 [1] of the same compound?
A: 0.731 µM [falling, single point]

Q: What does the source list for `COc1ccc(-n2c(SCCC#N)nnc2-c2cc(Cl)ccc2OC)cc1Cl`?
A: cell number change: -9.78%; AC50 [1]: 11.6 µM [rising, single point]

Q: For `Cc1ccc(C(=O)NNC(=S)NCC2CCCO2)cc1[N+](=O)[O-]` (stereo not given), which cell number change is on record?
A: 25.1%

Q: Which cell number change does the source give for `CC(C)(C)OC(=O)N1CCC(C(=O)N2CCOCC2)CC1` here?
A: -14%

Q: And the AC50 [1]?
A: 0.146 µM [falling, full curve, poor fit]

Q: For `Cc1ccc2c(c1)C(c1ccc(F)cc1)N(C(=O)c1ccc(S(=O)(=O)N(C)C)cc1)CC(=O)N2` (stereo not given), which AC50 [1] is on record?
A: 0.461 µM [rising, full curve, poor fit]

Q: Which cell number change does the source give for `CC1CCCC(NC(=O)CN(C)CC(=O)Nc2cccc(F)c2)C1C` (stereo not given) here?
A: -20.3%

Q: What about the AC50 [2] of the same compound?
A: 4.11 µM [falling, single point]

Q: And the AC50 [1]?
A: 6.51 µM [falling, single point]
